Data taken from patent US8658698B2, “Insecticidal compounds” (Syngenta Crop Protection, LLC, priority 2008, dated 2014).
Some results were stated once for a whole list of compounds, not compound by compound.

What was measured:
Assay type in all cases: in vivo
[1] = test system: Heliothis virescens (Tobacco Budworm); test: Heliothis virescens egg test on artificial diet; conditions: 200 ppm (concentration in well 18 ppm), eggs 0-24 h old on artificial diet, 4 days; egg mortality, larval mortality, growth regulation
Description: (§1) This Example illustrates the pesticidal/insecticidal properties of compounds of formula (I). The tests were performed as follows:
(§2) Cotton leaf discs were placed on agar in a 24-well microtiter plate and sprayed with test solutions at an application rate of 200 ppm. After drying, the leaf discs were infested with 5 L1 larvae. The samples were checked for mortality, feeding behavior, and growth regulation 3 days after treatment (DAT). The following compounds gave at least 80% control of Spodoptera littoralis: A2, A6, A8, A9, A10, A11, A13, A15, A19, A20, A22, A25, A27, A29, A31, A33, A35, A41, A50, A55, A60, A65, A73, A88, A92, and A94. Heliothis virescens (Tobacco Budworm): Eggs (0-24 h old) were placed in 24-well microtiter plate on artificial diet and treated with test solutions at an application rate of 200 ppm (concentration in well 18 ppm) by pipetting. After an incubation period of 4 days, samples were checked for egg mortality, larval mortality and growth regulation. The following compounds gave at least 80% control of Heliothis virescens: A2, A3, A4, A5, A6, A7, A9, A10, A11, A13, A15, A19, A20, A22, A25, A26, A27, A28, A29, A31, A32, A33, A35, A38, A40, A41, A43, A46, A55, A59, A60, A65, A69, A70, A71, A73, A74, A75, A77, A79, A80, A82, A86, A88, A89, A90, A92, A94, A96, A98, and A100. Plutella xylostella (Diamond Back Moth): A 24-well microtiter plate (MTP) with artificial diet was treated with test solutions at an application rate of 200 ppm (concentration in well 18 ppm) by pipetting. After drying, the MTP's were infested with L2 larvae (7-12 per well). After an incubation period of 6 days, samples were checked for larval mortality and growth regulation. The following compounds gave at least 80% control of Plutella xylostella: A3, A4, A5, A6, A7, A8, A10, A15, A16, A18, A19, A20, A22, A25, A26, A27, A28, A29, A31, A32, A33, A35, A38, A40, A55, A69, A71, A73, A74, A75, A76, A77, A78, A80, A82, A86, A87, A88, A89, A92, A94, A96, A97, A98, and A99. Diabrotica balteata (Corn Root Worm): A 24-well microtiter plate (MTP) with artificial diet was treated with test solutions at an application rate of 200 ppm (concentration in well 18 ppm) by pipetting. After drying, the MTP's were infested with larvae (L2) (6-10 per well). After an incubation period of 5 days, samples were checked for larval mortality, and growth regulation. The following compounds gave at least 80% control of Diabrotica balteata: A5, A6, A7, A14, A15, A18, A24, A35, A53, A55, A70, A71, A75, A79, A84, A85, A88, A92, A93, A95, A96, A97, A98, A99, A100, A101, A102, A103, and A104. Myzus persicae (Green Peach Aphid): Each well of a 24-well microtiter plate is filled with 0.6 ml 30% sucrose solution, containing 12.5 ppm of the test compounds. The wells are covered with streched parafilm and infested with a mixed population of Myzus persicae. After an incubation period of 6 days, samples are checked for mortality (feeding activity). The following compounds gave at least 80% control of Myzus persicae: A4, A6, A10, A11, A15, A19, A20, A24, A27, A29, A33, A34, A36, A37, A39, A40, A41, A42, A43, A44, A45, A46, A47, A48, A49, A55, A60, and A82. Tetranychus urticae (Two-Spotted Spider Mite): Bean leaf discs on agar in 24-well microtiter plates were sprayed with test solutions at an application rate of 200 ppm. After drying, the leaf discs are infested with mite populations of mixed ages. 8 days later, discs are checked for egg mortality, larval mortality, and adult mortality. The following compounds gave at least 80% control of Tetranychus urticae: A6, A11, A15, A19, A20, A22, A26, A35, A58, and A64.

[2] = test system: Spodoptera littoralis (Egyptian Cotton Leafworm); test: Spodoptera littoralis cotton leaf disc spray test; conditions: 200 ppm sprayed on cotton leaf discs, L1 larvae, mortality, feeding behavior, growth regulation 3 DAT
Description: as §1
Spodoptera littoralis (Egyptian Cotton Leafworm)
as §2

[3] = test system: Plutella xylostella (Diamond Back Moth); test: Plutella xylostella larvae test on artificial diet; conditions: 200 ppm (concentration in well 18 ppm), L2 larvae, 6 days, larval mortality, growth regulation
Description: as §1, §2

[4] = test system: Diabrotica balteata (Corn Root Worm); test: Diabrotica balteata larvae test on artificial diet; conditions: 200 ppm (concentration in well 18 ppm), L2 larvae, 5 days, larval mortality, growth regulation
Description: as §1, §2

| Compound | control of Heliothis virescens [1] | control of Spodoptera littoralis [2] | control of Plutella xylostella [3] | control of Diabrotica balteata [4] |
| --- | --- | --- | --- | --- |
| Cc1cc(C(=O)Nc2c(C)cc(C(F)(C(F)(F)F)C(F)(F)F)cc2C)ccc1C(=O)NCc1ccccc1 [A2, N-1-Benzyl-N-4-[2,6-dimethyl-4-(1,2,2,2-tetrafluoro-1-trifluoromethyl-ethyl)-phenyl]-2-methyl-terephthalamide] | at least 80% | at least 80% | – | – |
| CCc1cc(C(F)(C(F)(F)F)C(F)(F)C(F)(F)F)cc(C)c1NC(=O)c1ccc(C(=O)NCc2cn(C)cn2)c(C)c1 (stereo not shown) [A8] | – | at least 80% | at least 80% | – |
| CCc1cc(C(F)(C(F)(F)F)C(F)(F)C(F)(F)F)cc(C)c1NC(=O)c1ccc(C(=O)NCc2nc3ccccc3[nH]2)c(C)c1 (stereo not shown) [A9] | at least 80% | at least 80% | – | – |
| CCc1cc(C(F)(C(F)(F)F)C(F)(F)C(F)(F)F)cc(C)c1NC(=O)c1ccc(C(=O)NCCc2ccc3c(c2)OCO3)c(C)c1 (stereo not shown) [A13] | at least 80% | at least 80% | – | – |
| CCc1cc(C(F)(C(F)(F)F)C(F)(F)C(F)(F)F)cc(C)c1NC(=O)c1ccc(C(=O)NCCOc2ccccc2)c(C)c1 (stereo not shown) [A25] | at least 80% | at least 80% | at least 80% | – |
| CCc1cc(C(F)(C(F)(F)F)C(F)(F)C(F)(F)F)cc(C)c1NC(=O)c1ccc(C(=O)NCCc2c[nH]c3ccccc23)c(C)c1 (stereo not shown) [A31] | at least 80% | at least 80% | at least 80% | – |
| CCc1cc(C(F)(C(F)(F)F)C(F)(F)C(F)(F)F)cc(C)c1NC(=O)c1ccc(C(=O)Nc2cc(C(F)(F)F)ccc2N2CCOCC2)c(C)c1 (stereo not shown) [A50] | – | at least 80% | – | – |
| CCc1cc(C(F)(C(F)(F)F)C(F)(F)C(F)(F)F)cc(C)c1NC(=O)c1ccc(C(=O)Nc2[nH]nc3nc(C)cc(C)c23)c(C)c1 (stereo not shown) [A65] | at least 80% | at least 80% | – | – |
| CCc1cc(C(F)(C(F)(F)F)C(F)(F)C(F)(F)F)cc(C)c1NC(=O)c1ccc(C(=O)NCCc2ccccc2)c(C)c1 (stereo not shown) [A71] | at least 80% | – | at least 80% | at least 80% |
| CCc1cc(C(F)(C(F)(F)F)C(F)(F)C(F)(F)F)cc(C)c1NC(=O)c1ccc(C(=O)NCCc2cccs2)c(C)c1 (stereo not shown) [A73] | at least 80% | at least 80% | at least 80% | – |
| CCc1cc(C(F)(C(F)(F)F)C(F)(F)C(F)(F)F)cc(C)c1NC(=O)c1ccc(C(=O)NCc2ccc(OC)cc2)c(C)c1 (stereo not shown) [A75] | at least 80% | – | at least 80% | at least 80% |
| CCc1cc(C(F)(C(F)(F)F)C(F)(F)C(F)(F)F)cc(C)c1NC(=O)c1ccc(C(=O)NCc2cccc([N+](=O)[O-])c2)c(C)c1 (stereo not shown) [A88] | at least 80% | at least 80% | at least 80% | at least 80% |
| CCc1cc(C(F)(C(F)(F)F)C(F)(F)C(F)(F)F)cc(C)c1NC(=O)c1ccc(C(=O)NCc2ccc(N(C)C)cc2)c(C)c1 (stereo not shown) [A92] | at least 80% | at least 80% | at least 80% | at least 80% |
| CCc1cc(C(F)(C(F)(F)F)C(F)(F)C(F)(F)F)cc(C)c1NC(=O)c1ccc(C(=O)NCc2ccc(OC)c(OC)c2)c(C)c1 (stereo not shown) [A94] | at least 80% | at least 80% | at least 80% | – |
| CCc1cc(C(F)(C(F)(F)F)C(F)(F)C(F)(F)F)cc(C)c1NC(=O)c1ccc(C(=O)NCc2ccc3c(c2)OCO3)c(C)c1 (stereo not shown) [A96] | at least 80% | – | at least 80% | at least 80% |
